# Measurements: the supplement of paper PMC11438910
# This is one part of the list. Most of these values are background signal.
# Experiments:
# Test in all cases: fluorescence intensity of antibody binding to polysaccharide-coupled beads; higher = stronger binding
# [1] = molecular target: pneumococcal polysaccharide Pn2
# [2] = molecular target: pneumococcal polysaccharide Pn20A
# [3] = molecular target: pneumococcal polysaccharide Pn20B
# [4] = molecular target: pneumococcal polysaccharide Pn21
# [5] = molecular target: pneumococcal polysaccharide Pn22A
# [6] = molecular target: pneumococcal polysaccharide Pn22F
# [7] = molecular target: pneumococcal polysaccharide Pn23A
# [8] = molecular target: pneumococcal polysaccharide Pn23B
# [9] = molecular target: pneumococcal polysaccharide Pn23F
# [10] = molecular target: pneumococcal polysaccharide Pn24A
# [11] = molecular target: pneumococcal polysaccharide Pn24B
# [12] = molecular target: pneumococcal polysaccharide Pn24F
# [13] = molecular target: pneumococcal polysaccharide Pn25A
# [14] = molecular target: pneumococcal polysaccharide Pn25F
# [15] = molecular target: pneumococcal polysaccharide Pn27
# [16] = molecular target: pneumococcal polysaccharide Pn28A
# [17] = molecular target: pneumococcal polysaccharide Pn28F
# [18] = molecular target: pneumococcal polysaccharide Pn29
# [19] = molecular target: pneumococcal polysaccharide Pn3
# [20] = molecular target: pneumococcal polysaccharide Pn31
# [21] = molecular target: pneumococcal polysaccharide Pn32A
# [22] = molecular target: pneumococcal polysaccharide Pn32F
# [23] = molecular target: pneumococcal polysaccharide Pn33A
# [24] = molecular target: pneumococcal polysaccharide Pn33B
# [25] = antibody concentration 2337.65 ng/mL
# [26] = antibody concentration 12500 ng/mL
# [27] = antibody concentration 0.1 ng/mL
# [28] = antibody concentration 0.534724 ng/mL
# [29] = antibody concentration 2.8593 ng/mL
# [30] = antibody concentration 15.2894 ng/mL
# [31] = antibody concentration 81.7561 ng/mL
# [32] = antibody concentration 437.17 ng/mL
binder,measurement,setting,value
4-80.4 (protein) chain 1: QVQLQESGPGLVKPSETLSLTCAVSGGSFSSYWWSWIRQSPGKGLEWIGEISGNSGSTNYNPSLKSRVTISKDASKNQFSLKLSSVTAADTAVYYCARYKEYWGQGVLVTVSS chain 2: DVVMTQSPLSLLITPGQPASISCRSSQSLVHSNGNTYLSWYQQKPGQPPRRLLYEVSNRDSGVPDRFSGSGAGTDFTLKISRVEAEDVGVYYCGQGTHLPYSFGQGTKVEIK,fluorescence intensity,[1]; [25],23.5 MFI
same,fluorescence intensity,[1]; [26],27.5 MFI
same,fluorescence intensity,[2]; [27],24 MFI
same,fluorescence intensity,[2]; [28],22.5 MFI
same,fluorescence intensity,[2]; [29],23 MFI
same,fluorescence intensity,[2]; [30],22.5 MFI
same,fluorescence intensity,[2]; [31],24.5 MFI
same,fluorescence intensity,[2]; [32],23 MFI
same,fluorescence intensity,[2]; [25],26.5 MFI
same,fluorescence intensity,[2]; [26],62.2 MFI
same,fluorescence intensity,[3]; [27],23.5 MFI
same,fluorescence intensity,[3]; [28],23.8 MFI
same,fluorescence intensity,[3]; [29],24.5 MFI
same,fluorescence intensity,[3]; [30],24 MFI
same,fluorescence intensity,[3]; [31],23.5 MFI
same,fluorescence intensity,[3]; [32],23 MFI
same,fluorescence intensity,[3]; [25],25.5 MFI
same,fluorescence intensity,[3]; [26],32.2 MFI
same,fluorescence intensity,[4]; [27],18.5 MFI
same,fluorescence intensity,[4]; [28],19 MFI
same,fluorescence intensity,[4]; [29],19 MFI
same,fluorescence intensity,[4]; [30],18 MFI
same,fluorescence intensity,[4]; [31],18.5 MFI
same,fluorescence intensity,[4]; [32],18.5 MFI
same,fluorescence intensity,[4]; [25],19 MFI
same,fluorescence intensity,[4]; [26],21 MFI
same,fluorescence intensity,[5]; [27],21.8 MFI
same,fluorescence intensity,[5]; [28],21 MFI
same,fluorescence intensity,[5]; [29],20 MFI
same,fluorescence intensity,[5]; [30],20.2 MFI
same,fluorescence intensity,[5]; [31],22 MFI
same,fluorescence intensity,[5]; [32],21.5 MFI
same,fluorescence intensity,[5]; [25],24.5 MFI
same,fluorescence intensity,[5]; [26],39.5 MFI
same,fluorescence intensity,[6]; [27],33.8 MFI
same,fluorescence intensity,[6]; [28],26.2 MFI
same,fluorescence intensity,[6]; [29],29.2 MFI
same,fluorescence intensity,[6]; [30],31.5 MFI
same,fluorescence intensity,[6]; [31],28.2 MFI
same,fluorescence intensity,[6]; [32],31.5 MFI
same,fluorescence intensity,[6]; [25],30.5 MFI
same,fluorescence intensity,[6]; [26],37.2 MFI
same,fluorescence intensity,[7]; [27],25.5 MFI
same,fluorescence intensity,[7]; [28],26.5 MFI
same,fluorescence intensity,[7]; [29],27 MFI
same,fluorescence intensity,[7]; [30],25.5 MFI
same,fluorescence intensity,[7]; [31],25 MFI
same,fluorescence intensity,[7]; [32],28.8 MFI
same,fluorescence intensity,[7]; [25],38.5 MFI
same,fluorescence intensity,[7]; [26],64.2 MFI
same,fluorescence intensity,[8]; [27],31.5 MFI
same,fluorescence intensity,[8]; [28],29.8 MFI
same,fluorescence intensity,[8]; [29],29 MFI
same,fluorescence intensity,[8]; [30],29.8 MFI
same,fluorescence intensity,[8]; [31],32 MFI
same,fluorescence intensity,[8]; [32],31 MFI
same,fluorescence intensity,[8]; [25],31.5 MFI
same,fluorescence intensity,[8]; [26],37 MFI
same,fluorescence intensity,[9]; [27],16.8 MFI
same,fluorescence intensity,[9]; [28],18.5 MFI
same,fluorescence intensity,[9]; [29],20 MFI
same,fluorescence intensity,[9]; [30],18.5 MFI
same,fluorescence intensity,[9]; [31],19.5 MFI
same,fluorescence intensity,[9]; [32],17.5 MFI
same,fluorescence intensity,[9]; [25],19.5 MFI
same,fluorescence intensity,[9]; [26],27.2 MFI
same,fluorescence intensity,[10]; [27],16.5 MFI
same,fluorescence intensity,[10]; [28],14.8 MFI
same,fluorescence intensity,[10]; [29],15.5 MFI
same,fluorescence intensity,[10]; [30],16 MFI
same,fluorescence intensity,[10]; [31],17.5 MFI
same,fluorescence intensity,[10]; [32],15.5 MFI
same,fluorescence intensity,[10]; [25],16.2 MFI
same,fluorescence intensity,[10]; [26],21 MFI
same,fluorescence intensity,[11]; [27],20 MFI
same,fluorescence intensity,[11]; [28],18.5 MFI
same,fluorescence intensity,[11]; [29],17.5 MFI
same,fluorescence intensity,[11]; [30],19 MFI
same,fluorescence intensity,[11]; [31],18.5 MFI
same,fluorescence intensity,[11]; [32],20.2 MFI
same,fluorescence intensity,[11]; [25],21 MFI
same,fluorescence intensity,[11]; [26],32.2 MFI
same,fluorescence intensity,[12]; [27],20.2 MFI
same,fluorescence intensity,[12]; [28],20.5 MFI
same,fluorescence intensity,[12]; [29],18.2 MFI
same,fluorescence intensity,[12]; [30],20.8 MFI
same,fluorescence intensity,[12]; [31],16.8 MFI
same,fluorescence intensity,[12]; [32],19.5 MFI
same,fluorescence intensity,[12]; [25],25.5 MFI
same,fluorescence intensity,[12]; [26],31.5 MFI
same,fluorescence intensity,[13]; [27],23.8 MFI
same,fluorescence intensity,[13]; [28],23.5 MFI
same,fluorescence intensity,[13]; [29],23.5 MFI
same,fluorescence intensity,[13]; [30],23 MFI
same,fluorescence intensity,[13]; [31],26 MFI
same,fluorescence intensity,[13]; [32],25 MFI
same,fluorescence intensity,[13]; [25],26.5 MFI
same,fluorescence intensity,[13]; [26],32 MFI
same,fluorescence intensity,[14]; [27],29.5 MFI
same,fluorescence intensity,[14]; [28],30 MFI
same,fluorescence intensity,[14]; [29],30.5 MFI
same,fluorescence intensity,[14]; [30],29.5 MFI
same,fluorescence intensity,[14]; [31],31 MFI
same,fluorescence intensity,[14]; [32],30.5 MFI
same,fluorescence intensity,[14]; [25],31.5 MFI
same,fluorescence intensity,[14]; [26],37.5 MFI
same,fluorescence intensity,[15]; [27],16 MFI
same,fluorescence intensity,[15]; [28],17 MFI
same,fluorescence intensity,[15]; [29],17.8 MFI
same,fluorescence intensity,[15]; [30],17 MFI
same,fluorescence intensity,[15]; [31],15.5 MFI
same,fluorescence intensity,[15]; [32],18.2 MFI
same,fluorescence intensity,[15]; [25],21 MFI
same,fluorescence intensity,[15]; [26],62.5 MFI
same,fluorescence intensity,[16]; [27],27 MFI
same,fluorescence intensity,[16]; [28],27.5 MFI
same,fluorescence intensity,[16]; [29],28.5 MFI
same,fluorescence intensity,[16]; [30],27 MFI
same,fluorescence intensity,[16]; [31],27.5 MFI
same,fluorescence intensity,[16]; [32],27.2 MFI
same,fluorescence intensity,[16]; [25],28.2 MFI
same,fluorescence intensity,[16]; [26],33.5 MFI
same,fluorescence intensity,[17]; [27],28.5 MFI
same,fluorescence intensity,[17]; [28],29 MFI
same,fluorescence intensity,[17]; [29],30 MFI
same,fluorescence intensity,[17]; [30],29.2 MFI
same,fluorescence intensity,[17]; [31],31 MFI
same,fluorescence intensity,[17]; [32],29.8 MFI
same,fluorescence intensity,[17]; [25],31 MFI
same,fluorescence intensity,[17]; [26],50.2 MFI
same,fluorescence intensity,[18]; [27],15.5 MFI
same,fluorescence intensity,[18]; [28],16.8 MFI
same,fluorescence intensity,[18]; [29],16 MFI
same,fluorescence intensity,[18]; [30],14.5 MFI
same,fluorescence intensity,[18]; [31],17 MFI
same,fluorescence intensity,[18]; [32],17 MFI
same,fluorescence intensity,[18]; [25],18 MFI
same,fluorescence intensity,[18]; [26],42 MFI
same,fluorescence intensity,[19]; [27],13 MFI
same,fluorescence intensity,[19]; [28],13 MFI
same,fluorescence intensity,[19]; [29],14 MFI
same,fluorescence intensity,[19]; [30],16.5 MFI
same,fluorescence intensity,[19]; [31],40.2 MFI
same,fluorescence intensity,[19]; [32],214 MFI
same,fluorescence intensity,[19]; [25],808 MFI
same,fluorescence intensity,[19]; [26],4230 MFI
same,fluorescence intensity,[20]; [27],13.2 MFI
same,fluorescence intensity,[20]; [28],14 MFI
same,fluorescence intensity,[20]; [29],14 MFI
same,fluorescence intensity,[20]; [30],13.5 MFI
same,fluorescence intensity,[20]; [31],14.5 MFI
same,fluorescence intensity,[20]; [32],14 MFI
same,fluorescence intensity,[20]; [25],16.5 MFI
same,fluorescence intensity,[20]; [26],41.5 MFI
same,fluorescence intensity,[21]; [27],16.5 MFI
same,fluorescence intensity,[21]; [28],17 MFI
same,fluorescence intensity,[21]; [29],18.8 MFI
same,fluorescence intensity,[21]; [30],18 MFI
same,fluorescence intensity,[21]; [31],17 MFI
same,fluorescence intensity,[21]; [32],17.5 MFI
same,fluorescence intensity,[21]; [25],20.2 MFI
same,fluorescence intensity,[21]; [26],29.8 MFI
same,fluorescence intensity,[22]; [27],28 MFI
same,fluorescence intensity,[22]; [28],28.5 MFI
same,fluorescence intensity,[22]; [29],28 MFI
same,fluorescence intensity,[22]; [30],26.8 MFI
same,fluorescence intensity,[22]; [31],28.2 MFI
same,fluorescence intensity,[22]; [32],28 MFI
same,fluorescence intensity,[22]; [25],30.5 MFI
same,fluorescence intensity,[22]; [26],47.5 MFI
same,fluorescence intensity,[23]; [27],18.5 MFI
same,fluorescence intensity,[23]; [28],19 MFI
same,fluorescence intensity,[23]; [29],18.5 MFI
same,fluorescence intensity,[23]; [30],19 MFI
same,fluorescence intensity,[23]; [31],18 MFI
same,fluorescence intensity,[23]; [32],19 MFI
same,fluorescence intensity,[23]; [25],31.5 MFI
same,fluorescence intensity,[23]; [26],158 MFI
same,fluorescence intensity,[24]; [27],17.8 MFI
same,fluorescence intensity,[24]; [28],17.5 MFI

# Reformatted with tabs: entries from further up
binder	measurement	setting	value
4-80.4 (protein) chain 1: QVQLQESGPGLVKPSETLSLTCAVSGGSFSSYWWSWIRQSPGKGLEWIGEISGNSGSTNYNPSLKSRVTISKDASKNQFSLKLSSVTAADTAVYYCARYKEYWGQGVLVTVSS chain 2: DVVMTQSPLSLLITPGQPASISCRSSQSLVHSNGNTYLSWYQQKPGQPPRRLLYEVSNRDSGVPDRFSGSGAGTDFTLKISRVEAEDVGVYYCGQGTHLPYSFGQGTKVEIK	fluorescence intensity	[21]; [27]	16.5 MFI
same	fluorescence intensity	[21]; [28]	17 MFI
same	fluorescence intensity	[21]; [29]	18.8 MFI
same	fluorescence intensity	[21]; [30]	18 MFI
same	fluorescence intensity	[21]; [31]	17 MFI
same	fluorescence intensity	[21]; [32]	17.5 MFI
same	fluorescence intensity	[21]; [25]	20.2 MFI

# Two entries from above in another layout.
binder | measurement | setting | value
4-80.4 (protein) chain 1: QVQLQESGPGLVKPSETLSLTCAVSGGSFSSYWWSWIRQSPGKGLEWIGEISGNSGSTNYNPSLKSRVTISKDASKNQFSLKLSSVTAADTAVYYCARYKEYWGQGVLVTVSS chain 2: DVVMTQSPLSLLITPGQPASISCRSSQSLVHSNGNTYLSWYQQKPGQPPRRLLYEVSNRDSGVPDRFSGSGAGTDFTLKISRVEAEDVGVYYCGQGTHLPYSFGQGTKVEIK | fluorescence intensity | [6]; [31] | 28.2 MFI
same | fluorescence intensity | [6]; [32] | 31.5 MFI
